From publication PMC10882573

The chains behind the UniProt entries cited, without tags or fusion partners.
UniProt P02743, whole entry: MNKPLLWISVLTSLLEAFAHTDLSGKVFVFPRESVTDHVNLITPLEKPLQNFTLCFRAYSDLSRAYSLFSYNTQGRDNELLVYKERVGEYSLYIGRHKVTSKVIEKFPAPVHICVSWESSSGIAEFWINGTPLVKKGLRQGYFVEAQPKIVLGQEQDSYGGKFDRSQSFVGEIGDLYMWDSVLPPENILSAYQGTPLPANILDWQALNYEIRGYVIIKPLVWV

Molecular target: serum amyloid P component (SAP), glycosylated (Homo sapiens) (UniProt P02743)
Assay: antibody-aptamer sandwich electrochemical assay (strep-POD/TMB)
Conditions: 1 uM aptamer, SAP captured by anti-SAP antibody, signal rises with SAP (linear 10-100 ng/mL); 1x PBS (0.1 M phosphate, 0.154 M NaCl, pH 7.4), room temperature, 30 min, 1 uM biotin-PSA-1; also in human serum; protein in a lysate after overexpression; residues 1-223; label: 5'-biotin; single-stranded DNA

“GGACGGTTGCGCTATATTTAACCAAAAGTCTGGATTAACA [PSA-1 aptamer]”: binds.

For at least one entry, the source does not settle the construct or the ends of the probe. Where cells or extracts were used, other partners may take part.
